Data taken from US9820990B2, “Methods of treating disorders associated with protein aggregation” (University of Pittsburgh—Of the Commonwealth System of …, priority 2009, dated 2017).

Test system: sGFP::ATZ
Experiment: LOPAC library high-content primary screen for sGFP::ATZ accumulation in transgenic animals
Format: in vivo, C. elegans

## Br.CN1[C@@H]2CC[C@H]1C[C@@H](OC(=O)C(O)c1ccccc1)C2 (mixture of isomers) [DL-homatropine hydrobromide]
Among compounds that decreased ATZ accumulation, based on relative rank-scores
  Overall rank-order: 6
Average of compound rankings by ascending B-score from two independent screens, 50 μM, 24 h, <110 decreased, >1225 increased sGFP::ATZ inclusions
  Rank-score: 34.5
